From patent USRE38117E1, “Trioxane dimer compound having antiproliferative and antitumor activities” (Hauser, Inc., priority 1995, dated 2003)
No dose or concentration is given here for some results.

System: 60 cell line panel
Assay: NCI 60 cell line screen, values over the whole panel
Format: cell-based

Compound	Log10GI50 Delta	Log10GI50 Range	Log10LC50 Delta	Log10LC50 Range	Log10TGI Delta	Log10TGI Range
CC(=O)O[C@H]1C(=O)[C@@]2(C)[C@H]([C@H](OC(=O)c3ccccc3)[C@]3(O)C[C@H](OC(=O)[C@H](O)[C@@H](NC(=O)c4ccccc4)c4ccccc4)C(C)=C1C3(C)C)[C@]1(OC(C)=O)CO[C@@H]1C[C@@H]2O [Paclitaxel, paclitaxel, reference compound]	−10.15	8.00	−4.06	0.45	−4.54	7.20
COC1OC2(C)CCC3CCCC(CCOC(=O)c4ccc(C(=O)OCCC5CCCC6CCC7(C)OOC56C(OC)O7)cc4)C31OO2 (stereo not drawn) [Compound 11, Bis-ester Dimer]	1.82	3.42	1.21	1.26	2.39	2.58
C[C@@H]1CC[C@H]2[C@@H](C)C(=O)O[C@@H]3O[C@@]4(C)CC[C@@H]1[C@]32OO4 [QHS, 3,6,9-trimethyl-9,10b-epidioxyperhydropyrano[4,3,2-jk]benzoxepin-2-one, reference compound]	−4.07	0.73	−4.00	0.00	−4.00	0.06
COC1OC2(C)CCC3CCCC(CCOC(=O)c4cccc(C(=O)OCCC5CCCC6CCC7(C)OOC56C(OC)O7)c4)C31OO2 (stereo not drawn) [Compound 10, Trioxane Bis-ester Dimer]	2.53	4.00	0.17	0.18	2.97	3.19
COC1OC2(C)CCC3CCCC(CCOCCC4CCCC5CCC6(C)OOC45C(OC)O6)C31OO2 (stereo not drawn) [Compound 6, Trioxane Ether Dimer]	1.85	3.85	1.72	1.77	2.10	2.36
